No constants are given. Whether binding was seen depends on the method and setting.
Biological target: RgNanH (residues 26–723), intramolecular trans-sialidase from Ruminococcus gnavus ATCC 29149 (Ruminococcus gnavus ATCC 29149) (UniProt A7B557)
Assay: SEC-MALS; RgNanH with the His tag cleaved; NGC chromatography system with DAWN HELEOS II MALS and Optilab T-rEX detectors; measured 73 kDa against 77 kDa expected; both purified

B1: RgNanH (residues 26–723), intramolecular trans-sialidase from Ruminococcus gnavus ATCC 29149 (enzyme, UniProt A7B557 26-723)
chain: QEAQTDVIEAVAEKKQDTESSSVPVLQKEGIEISEGTGYDLSKEPGAATVKALEQGTIVISYKTTSENAIQSLLSVGNGTKGNQDRHFHLYITNAGGVGMELRNTDGEFKYTLDCPAAVRGSYKGERVSNTVALKADKENKQYKLFANGELIATLDQEAFKFISDITGVDNVMLGGTMRQGTVAYPFGGSIERMQVYRDVLSDDELIAVTGKTIYAENIFYAGDATKSNYFRIPSLLALDSGTVIAAADARYGGTHDAKSKINTAFAKSTDGGKTWGQPTLPLKFDDYVAKNIDWPRDSVGKNVQIQGSASYIDPVLLEDKETHRVFLFADMMPAGIGSSNASVGSGFKEVDGKKYLKLHWKDDAAGTYDYSVRENGTIYNDTTNSATEYSVDGEYNLYKNGNAMLCKQYDYNFEGTKLLETQTDTDVNMNVFYKDADFKVFPTTYLAMKYSDDEGETWSDLQIVSTFKPEESKFLVLGPGVGKQIANGEHAGRLIVPLYSKSSAELGFMYSDDHGNNWTYVEADQNTGGATAEAQIVEMPDGSLKTYLRTGSGYIAQVMSTDGGETWSERVPLTEIATTGYGTQLSVINYSQPVDGKPAILLSAPNATNGRKNGKIWIGLISETGNSGKDKYSVDWKYCYSVDTPQMGYSYSCLTELPDGEIGLLYEKYDSWSRNELHLKNILKYERFNIDELKVQP
Question: Which binding does the source give for B1 here?
Answer: no binding

Reference: publication PMC5736709, “Unravelling the specificity and mechanism of sialic acid recognition by the gut symbiont Ruminococcus gnavus” (Nature Communications, 2017)
